Assay results: paper PMC9905709
The exact form of at least one protein or probe is not confirmed. At least one verdict rests on a figure or table, not on a statement of the authors.

Chains of the proteins cited; added tags and fusions are not shown. Lines headed by an entry give the natural chain unless they say otherwise; changes in a name come on top. Chains listed by the source or under a name are the forms on record and can include a tag or linker.
UniProt Q16629: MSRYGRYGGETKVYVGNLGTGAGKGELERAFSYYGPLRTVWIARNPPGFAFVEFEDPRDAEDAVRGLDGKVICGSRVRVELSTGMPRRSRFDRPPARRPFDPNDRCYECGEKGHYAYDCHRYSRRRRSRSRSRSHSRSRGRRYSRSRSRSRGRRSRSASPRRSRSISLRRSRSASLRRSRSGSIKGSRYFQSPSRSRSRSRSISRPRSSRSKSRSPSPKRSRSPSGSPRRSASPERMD
DROSHA D3-G2 complex (DROSHA fragment D3 + DGCR8 fragment G2) (human), one chain, as listed by the source, chain 2 of 2: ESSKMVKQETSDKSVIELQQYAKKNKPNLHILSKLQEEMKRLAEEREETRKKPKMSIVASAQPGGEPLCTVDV
DROSHA D3-G2 complex (DROSHA fragment D3 + DGCR8 fragment G2) (human), one chain, as listed by the source, chain 1 of 2: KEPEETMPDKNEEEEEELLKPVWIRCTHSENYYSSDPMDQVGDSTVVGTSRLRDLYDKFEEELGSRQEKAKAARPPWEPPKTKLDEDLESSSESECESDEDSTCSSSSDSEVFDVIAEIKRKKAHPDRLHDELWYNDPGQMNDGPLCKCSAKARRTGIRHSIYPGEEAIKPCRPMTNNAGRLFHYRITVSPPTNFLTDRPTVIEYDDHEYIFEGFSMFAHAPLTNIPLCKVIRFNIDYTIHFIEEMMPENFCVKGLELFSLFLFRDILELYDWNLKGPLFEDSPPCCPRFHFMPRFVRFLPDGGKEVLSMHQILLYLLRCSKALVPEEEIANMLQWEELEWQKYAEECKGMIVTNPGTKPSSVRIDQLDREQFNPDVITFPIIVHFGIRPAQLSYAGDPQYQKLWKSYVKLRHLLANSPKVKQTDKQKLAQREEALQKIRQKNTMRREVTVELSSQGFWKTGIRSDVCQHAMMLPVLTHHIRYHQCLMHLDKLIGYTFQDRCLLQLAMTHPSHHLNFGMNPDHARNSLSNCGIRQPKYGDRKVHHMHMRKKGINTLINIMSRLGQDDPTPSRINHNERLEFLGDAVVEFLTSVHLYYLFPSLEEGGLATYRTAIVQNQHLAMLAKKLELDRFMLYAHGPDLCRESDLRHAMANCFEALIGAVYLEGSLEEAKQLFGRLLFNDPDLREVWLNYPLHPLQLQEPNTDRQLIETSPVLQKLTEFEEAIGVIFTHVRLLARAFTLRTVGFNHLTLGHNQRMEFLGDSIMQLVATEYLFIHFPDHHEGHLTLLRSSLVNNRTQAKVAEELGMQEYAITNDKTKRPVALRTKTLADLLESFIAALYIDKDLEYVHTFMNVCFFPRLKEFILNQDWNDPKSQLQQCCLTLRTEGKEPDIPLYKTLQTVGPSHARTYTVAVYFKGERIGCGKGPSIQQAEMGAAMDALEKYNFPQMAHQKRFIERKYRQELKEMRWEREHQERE

Tests used:
[1] = test system: DROSHA D3-G2 complex (DROSHA fragment D3 + DGCR8 fragment G2) (human); assay: EMSA; conditions: 2 mM EDTA, 10 pmol DROSHA (legend, Methods say 20 pmol), 2 pmol RNA, EMSA: 50 mM Tris-HCl pH 7.5, 125 mM NaCl, 10% glycerol, 0.2 mg/ml BSA, 1 mM DTT, 12 ul, on ice 1 h, 4% native PAGE, 1x TBE, 4 C, ethidium bromide, recombinant protein
SRSF7 (human) = SRSF7 (human) (UniProt Q16629); assay: EMSA; conditions: 2 mM EDTA, 26 pmol SRSF7, 2 pmol RNA, EMSA: 50 mM Tris-HCl pH 7.5, 125 mM NaCl, 10% glycerol, 0.2 mg/ml BSA, 1 mM DTT, 12 ul, on ice 1 h, 4% native PAGE, 1x TBE, 4 C, ethidium bromide, recombinant protein, protein details: C-terminal GFP and 10xHis

Sequence: GGGCGGACAGACAGACAGUGCAGUCACCCAUAAAGUAGAAAGCACUACUAACAGCACUGGAGGGUGUAGUGUUUCCUACUUUAUGGAUGAGUGUACUGUGGGCUUCGG [pri-miR-142 (CNNC, CUUC WT)]
- binding result [1]: binds
- binding result (SRSF7 (human)): binds
